Primary screen of a compound library

Chains of the proteins cited; added tags and fusions are not shown.
UniProt E9BF75, entry or part of it: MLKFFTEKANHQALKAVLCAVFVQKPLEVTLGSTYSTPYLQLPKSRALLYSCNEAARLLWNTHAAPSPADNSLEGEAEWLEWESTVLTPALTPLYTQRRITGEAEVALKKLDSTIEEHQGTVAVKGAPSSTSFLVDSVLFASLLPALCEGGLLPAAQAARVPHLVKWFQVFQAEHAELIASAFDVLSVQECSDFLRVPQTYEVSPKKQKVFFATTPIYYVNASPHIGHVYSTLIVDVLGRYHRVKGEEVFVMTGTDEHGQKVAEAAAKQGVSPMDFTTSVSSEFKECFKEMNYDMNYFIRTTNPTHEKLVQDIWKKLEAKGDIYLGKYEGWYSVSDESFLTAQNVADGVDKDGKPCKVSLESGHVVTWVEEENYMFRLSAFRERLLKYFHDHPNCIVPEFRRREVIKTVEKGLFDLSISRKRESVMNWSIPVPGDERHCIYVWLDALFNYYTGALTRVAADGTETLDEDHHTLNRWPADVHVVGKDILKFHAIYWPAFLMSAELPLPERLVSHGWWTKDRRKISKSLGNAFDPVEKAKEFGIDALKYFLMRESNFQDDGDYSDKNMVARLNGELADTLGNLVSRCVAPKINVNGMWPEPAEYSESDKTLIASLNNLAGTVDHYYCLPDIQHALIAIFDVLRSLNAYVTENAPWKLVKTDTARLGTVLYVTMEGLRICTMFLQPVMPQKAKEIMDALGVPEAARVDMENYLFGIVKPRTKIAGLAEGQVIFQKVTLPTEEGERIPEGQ

Data taken from ChEMBL document CHEMBL3988442, “University of Dundee, Small-Polar-MMV Screening Library” (2021).

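Methionyl-tRNA synthetase (putative), Leishmania donovani (UniProt E9BF75). Primary screen of methionyl-tRNA synthetase; the read-out is not stated. The test concentration is not given. Values are per cent inhibition. About 68,000 compounds were tested under these conditions; 0.035% (about 24) showed 50% or more at least once.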

All values are in %. The controls that fix the scale are not given in the record; negative values are as filed. The compounds are a random part of those screened.

structure,inhibition
CN(CCOc1ccc(F)cc1)S(=O)(=O)c1cnn(C)c1,28.54
Cn1cc(N2CC3(CCN(C(=O)c4cccn4C)CC3)OCC2=O)cn1,9.95
O=C1CN(C(=O)C2CCCOC2)CCN1Cc1ccc(Cl)cc1 (stereo not drawn),18.53
COCCCSc1ccc(NCc2ccc(C)cn2)cc1,11.68
Cc1noc(C)c1CNC(=O)N1CCC(C(O)c2ccccc2)CC1 (stereo not drawn),17.5
Cc1nc(C)n(CC2CCCN2CCOc2cccc(F)c2)n1 (stereo not drawn),10.42
CO[C@H]1CCN(Cc2cccc(C)n2)[C@@H]2CN(Cc3cccnc3)C[C@H]12,14.5
Cn1cncc1-c1nnc([C@H]2CCN(Cc3ncc[nH]3)C2)o1,6.767
COc1ccccc1CN1CC(O)CN(S(=O)(=O)C(C)C)CC1=O (stereo not drawn),7.397
O=C(CCS(=O)(=O)C1CCCC1)NCc1ccccc1Cn1cncn1,23.43
Cc1ccccc1CN(C)C(=O)CN1CCOC(Cn2cccn2)C1 (stereo not drawn),14.21
CC(C)c1noc(CN2CCOCC2C)n1 (stereo not drawn),14.71
Cc1cnn(CC2CCCCN2C(=O)Cc2c(C)noc2C)c1 (stereo not drawn),12.14
CCOC[C@H]1CC[C@H]2[C@H](CCN2C(=O)c2ccncc2F)O1,12.27
CC(Cn1cncn1)NC1CCN(Cc2cccc(O)c2)CC1 (stereo not drawn),13.41
Cc1cc(C(=O)N2CCCC(C)C2)ccc1NCc1nc(C(C)C)no1 (stereo not drawn),11.68
Cc1cc(C)n(CC2CN(CC(=O)NC3CCCC3)CCO2)n1 (stereo not drawn),6.073
Cn1cc(-c2noc(C3(C)CCOCC3)n2)cn1,-0.8523
CN(Cc1nnn(CC2CCC2)n1)C(=O)c1ccccc1,6.269
Cc1cc(N2CCC(O)(C(=O)O)CC2)nc2ccccc12,14.63
O=S(=O)(c1ccc(Cl)s1)N1CCN(Cc2nc(-c3ccco3)cs2)CC1,16.95
CCN(CC)c1ccc(CNC(=O)c2cnccn2)cn1,-1.397
Cc1ncc(CN2CCCC(c3cc(C(F)(F)F)[nH]n3)C2)s1 (stereo not drawn),18.79
NC(=O)CN1CC2(CCC1=O)CCN(Cc1cc(F)cc(F)c1)CC2,14.53
Cc1cc(-c2cc(S(=O)(=O)N3C[C@H](C4CC4)[C@@H](N)C3)c(C)s2)on1,13.56
Cc1cccnc1CNCC1(O)CCCN(Cc2ccc(F)cc2)C1=O (stereo not drawn),13.33
CCN(CC1CCOC1)C(=O)c1cnc2onc(C)c2c1 (stereo not drawn),19.47
Cc1cnn(CC2CN(CCS(=O)(=O)C(F)(F)F)CCO2)c1 (stereo not drawn),7.116
COC(=O)C1=NOC(Cc2cc(OC)c3c(c2)OCO3)C1 (stereo not drawn),12.91
COc1ccc2cccc(CC(=O)NCCc3n[nH]c(=O)[nH]3)c2c1,22.18
Cc1noc(NCc2cn(C)nc2-c2ccncc2)n1,14.4
CC(NC(=O)c1cccc(CN2CCN(C)CC2)c1)c1nccs1 (stereo not drawn),15.16
CC(C)CN1CCOC[C@H](Oc2ccc(S(C)(=O)=O)cc2)C1,4.886
CC1(NC(=O)Cc2csc(-c3cccc(Cl)c3)n2)CCS(=O)(=O)C1 (stereo not drawn),16.17
CC1CN(C)CCN1CC(=O)NCCOc1ccc(Cl)cc1 (stereo not drawn),4.762
COC(=O)c1cc2n(n1)CCN(C(=O)c1csc(CN(C)C)n1)C2,17.14
CCNc1c(C#N)c(=O)n(C)c(=O)n1C,14.76
Fc1cnc(N2C[C@@H]3COC[C@]3(COc3ccccn3)C2)nc1,8.493
c1ncn(CC2CN(Cc3ccc4c(c3)OCCO4)CCO2)n1 (stereo not drawn),16.06
CC(=O)N1CCC[C@H]1C(=O)N(C)CCCOc1ccccc1,16.4
CN(C)C(=O)[C@H]1CCS(=O)(=O)[C@@H]2CN(c3ncc(F)cn3)C[C@H]12,0
CC(c1cncs1)N(C)Cc1ccc(CCC(C)(C)O)cc1 (stereo not drawn),18.45
COc1ccc(C(N)=O)cc1NCc1ncc(-c2cccs2)o1,16.17
N#Cc1cccc(S(=O)(=O)N2CCCCC2CCN2CCCC2)c1 (stereo not drawn),18.4
CN1CCCN(C[C@@H]2CN(c3nc(C(N)=O)cs3)C[C@@H]2CO)CC1,15.87
Cn1nc2c(cc1=O)CN(Cc1nc(-c3ccsc3)no1)CC2,18.79
Cc1ccc(CS(=O)(=O)N2CC[C@H]3[C@H]2CC(=O)N3C)cc1,-4.375
CC(C)(C)[S+]([O-])CCNC(=O)c1cccc2ncccc12 (stereo not drawn),16.08
CCOc1ccccc1C(C(=O)O)N(C)Cc1nnc(C)o1 (stereo not drawn),19.05
Cc1ncsc1C(=O)N1CCCN(Cc2cscn2)CC1,13.19
Cc1csc(NC(=O)NCCCN2CCC(C(N)=O)CC2)n1,6.192
CC(=O)N(Cc1noc(C)n1)C1CCN(CC2CCCC2)C1 (stereo not drawn),11.54
C[C@@H]1CN(C(=O)c2ccncc2)CC[C@@]1(O)C1CCOCC1,21.4
O=C1N(Cc2ccc(F)c(F)c2)CCCC1(O)CNCc1cccnc1 (stereo not drawn),15.53
CCN1CCCC1CN(CCN(C)C)S(=O)(=O)c1ccccc1C#N (stereo not drawn),8.361
CC(C)COCCCNC(=O)NCC(O)c1cccc(F)c1 (stereo not drawn),18.23
COc1ccccc1OC1CN(C(=O)Cc2c(C)nc3ccccn23)C1,12.75
CCC(=O)NCC(=O)N(C)C(c1ccc(Cl)cc1)c1cccnc1 (stereo not drawn),9.686
CCn1cncc1C1CC(=O)Nc2c1c(C)nn2C (stereo not drawn),11.5
Cc1nc(C2(NCC(=O)NC(=O)NCc3cccs3)CCCCC2)no1,12.68
NC(=O)c1c(NC(=O)C2CCCO2)sc2c1CCc1ccccc1-2 (stereo not drawn),5.149
O=C(c1ccco1)N1C[C@H]2CCCN(Cc3ccc(F)cc3)[C@H]2C1,5.229
C[S+]([O-])c1nncn1CC(=O)c1ccc(Cl)c(Cl)c1 (stereo not drawn),8.55
CCc1cc(CNC(=O)c2cc(NC(=O)C(C)C)ccc2Cl)[nH]n1,11.85
N#Cc1cccc(C(=O)N2CCc3ncc(Cn4cccn4)n3CC2)c1,2.929
COC(=O)NCC(=O)NCc1nn(-c2ccccc2)c2c1CCC2,13.68
O=C(O)c1c[nH]c2cc(NS(=O)(=O)c3ccc(Cl)cc3F)ccc12,10.23
CC(C)c1cc(C(=O)NCC2(C(N)=O)CCOCC2)nn1C(C)(C)C,9.722
Cc1cc(NC(=O)N2CCN(c3cccs3)CC2)ccc1C(N)=O,5.775
COCCNC(=O)c1ccoc1CN1c2ccccc2CC1C (stereo not drawn),11.35
Cc1cc(CN2C[C@@H](N3CCN(C)CC3)[C@H]3OCCC[C@H]32)oc1C,14.78
COCCN1CCN(Cc2cnc(C)nc2)CC1,18.65
CN1CCC2(COCc3cnc(-c4ccccc4)nc32)C1 (stereo not drawn),-0.5376
COCc1nc(N(C)C)ncc1C(=O)OC,-0.2513
CN(CC1Cc2ccccc2CN1C)C(=O)CSc1nccn1C (stereo not drawn),9.355
Cc1nnc2n1CCN(CC(O)CN1CCC(C)CC1)C2 (stereo not drawn),14.95
Cn1ccc(-c2cc(C(=O)N3CCOCC3)c3ccccn23)n1,-1.01
Cc1occc1C(=O)NCC(=O)NCCOc1ccc2c(c1)CCC2,10.12
COc1cccc(OCCCc2cc(C#N)ccn2)c1,4.032
CN1CCC2(CCN(CC3CC3)CC2)C1=O,7.958
Cc1ccc(C(C)NC(=O)N2CCN(S(C)(=O)=O)CC2)o1 (stereo not drawn),6.964
CCN(c1ccc(C(=O)N2CCC(C(N)=O)CC2)cc1)S(=O)(=O)CC,0
CCC(CC#N)n1ccc(C(F)(F)F)n1 (stereo not drawn),5.676
CC(C)NC(=O)N1CCC2(CC1)NC(=O)[C@H]1CN(C(=O)N(C)C)C[C@H]12,5.556
CC(=O)N1CCCC(c2nc(-c3ccccc3)c[nH]2)C1 (stereo not drawn),25.19
Cn1ccc(CN2CCC(c3ccccc3)CC2)cc1=O,17.41
Cc1nc(CN2CC[C@H]3[C@H]2CCN3c2ncccn2)cs1,5.882
Cc1cc(N2CCCN(Cc3ccc(C)o3)CC2)ccn1,3.495
COc1ncnc2c1CCN(CC1CCOC1)CC2 (stereo not drawn),15.38
c1ccc(Oc2cccc(OC34CCCN(CC3)C4)c2)cc1 (stereo not drawn),24.37

11 of the entries, repeated:

{"structure": "CO[C@H]1CCN(Cc2cccc(C)n2)[C@@H]2CN(Cc3cccnc3)C[C@H]12", "inhibition": 14.5}
{"structure": "CCN(CC)c1ccc(CNC(=O)c2cnccn2)cn1", "inhibition": -1.397}
{"structure": "Cn1cncc1-c1nnc([C@H]2CCN(Cc3ncc[nH]3)C2)o1", "inhibition": 6.767}
{"structure": "COC(=O)NCC(=O)NCc1nn(-c2ccccc2)c2c1CCC2", "inhibition": 13.68}
{"structure": "COCc1nc(N(C)C)ncc1C(=O)OC", "inhibition": -0.2513}
{"structure": "Fc1cnc(N2C[C@@H]3COC[C@]3(COc3ccccn3)C2)nc1", "inhibition": 8.493}
{"structure": "Cc1ncc(CN2CCCC(c3cc(C(F)(F)F)[nH]n3)C2)s1", "stereo": "stereo not drawn", "inhibition": 18.79}
{"structure": "COC(=O)C1=NOC(Cc2cc(OC)c3c(c2)OCO3)C1", "stereo": "stereo not drawn", "inhibition": 12.91}
{"structure": "CCN(CC1CCOC1)C(=O)c1cnc2onc(C)c2c1", "stereo": "stereo not drawn", "inhibition": 19.47}
{"structure": "CN1CCC2(COCc3cnc(-c4ccccc4)nc32)C1", "stereo": "stereo not drawn", "inhibition": -0.5376}
{"structure": "Cc1cnn(CC2CCCCN2C(=O)Cc2c(C)noc2C)c1", "stereo": "stereo not drawn", "inhibition": 12.14}